According to the supplement of paper PMC10849652:
Some of the results follow.

Amino acid sequences for entries named in this document (tags omitted). A change or cut given only in a name is not applied to a line headed by its entry.
UniProt O95544: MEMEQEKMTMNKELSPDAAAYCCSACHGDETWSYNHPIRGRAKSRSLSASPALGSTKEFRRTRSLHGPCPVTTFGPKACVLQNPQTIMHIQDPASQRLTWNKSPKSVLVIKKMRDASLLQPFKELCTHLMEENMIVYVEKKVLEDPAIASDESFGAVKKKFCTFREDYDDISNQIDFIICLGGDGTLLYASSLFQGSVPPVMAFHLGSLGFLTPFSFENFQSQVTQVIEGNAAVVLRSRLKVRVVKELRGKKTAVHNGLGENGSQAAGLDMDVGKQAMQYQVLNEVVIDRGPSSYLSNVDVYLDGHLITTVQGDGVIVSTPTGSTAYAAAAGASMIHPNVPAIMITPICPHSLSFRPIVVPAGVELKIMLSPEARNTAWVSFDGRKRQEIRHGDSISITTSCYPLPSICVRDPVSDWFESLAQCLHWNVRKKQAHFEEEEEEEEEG
UniProt A2RRP1: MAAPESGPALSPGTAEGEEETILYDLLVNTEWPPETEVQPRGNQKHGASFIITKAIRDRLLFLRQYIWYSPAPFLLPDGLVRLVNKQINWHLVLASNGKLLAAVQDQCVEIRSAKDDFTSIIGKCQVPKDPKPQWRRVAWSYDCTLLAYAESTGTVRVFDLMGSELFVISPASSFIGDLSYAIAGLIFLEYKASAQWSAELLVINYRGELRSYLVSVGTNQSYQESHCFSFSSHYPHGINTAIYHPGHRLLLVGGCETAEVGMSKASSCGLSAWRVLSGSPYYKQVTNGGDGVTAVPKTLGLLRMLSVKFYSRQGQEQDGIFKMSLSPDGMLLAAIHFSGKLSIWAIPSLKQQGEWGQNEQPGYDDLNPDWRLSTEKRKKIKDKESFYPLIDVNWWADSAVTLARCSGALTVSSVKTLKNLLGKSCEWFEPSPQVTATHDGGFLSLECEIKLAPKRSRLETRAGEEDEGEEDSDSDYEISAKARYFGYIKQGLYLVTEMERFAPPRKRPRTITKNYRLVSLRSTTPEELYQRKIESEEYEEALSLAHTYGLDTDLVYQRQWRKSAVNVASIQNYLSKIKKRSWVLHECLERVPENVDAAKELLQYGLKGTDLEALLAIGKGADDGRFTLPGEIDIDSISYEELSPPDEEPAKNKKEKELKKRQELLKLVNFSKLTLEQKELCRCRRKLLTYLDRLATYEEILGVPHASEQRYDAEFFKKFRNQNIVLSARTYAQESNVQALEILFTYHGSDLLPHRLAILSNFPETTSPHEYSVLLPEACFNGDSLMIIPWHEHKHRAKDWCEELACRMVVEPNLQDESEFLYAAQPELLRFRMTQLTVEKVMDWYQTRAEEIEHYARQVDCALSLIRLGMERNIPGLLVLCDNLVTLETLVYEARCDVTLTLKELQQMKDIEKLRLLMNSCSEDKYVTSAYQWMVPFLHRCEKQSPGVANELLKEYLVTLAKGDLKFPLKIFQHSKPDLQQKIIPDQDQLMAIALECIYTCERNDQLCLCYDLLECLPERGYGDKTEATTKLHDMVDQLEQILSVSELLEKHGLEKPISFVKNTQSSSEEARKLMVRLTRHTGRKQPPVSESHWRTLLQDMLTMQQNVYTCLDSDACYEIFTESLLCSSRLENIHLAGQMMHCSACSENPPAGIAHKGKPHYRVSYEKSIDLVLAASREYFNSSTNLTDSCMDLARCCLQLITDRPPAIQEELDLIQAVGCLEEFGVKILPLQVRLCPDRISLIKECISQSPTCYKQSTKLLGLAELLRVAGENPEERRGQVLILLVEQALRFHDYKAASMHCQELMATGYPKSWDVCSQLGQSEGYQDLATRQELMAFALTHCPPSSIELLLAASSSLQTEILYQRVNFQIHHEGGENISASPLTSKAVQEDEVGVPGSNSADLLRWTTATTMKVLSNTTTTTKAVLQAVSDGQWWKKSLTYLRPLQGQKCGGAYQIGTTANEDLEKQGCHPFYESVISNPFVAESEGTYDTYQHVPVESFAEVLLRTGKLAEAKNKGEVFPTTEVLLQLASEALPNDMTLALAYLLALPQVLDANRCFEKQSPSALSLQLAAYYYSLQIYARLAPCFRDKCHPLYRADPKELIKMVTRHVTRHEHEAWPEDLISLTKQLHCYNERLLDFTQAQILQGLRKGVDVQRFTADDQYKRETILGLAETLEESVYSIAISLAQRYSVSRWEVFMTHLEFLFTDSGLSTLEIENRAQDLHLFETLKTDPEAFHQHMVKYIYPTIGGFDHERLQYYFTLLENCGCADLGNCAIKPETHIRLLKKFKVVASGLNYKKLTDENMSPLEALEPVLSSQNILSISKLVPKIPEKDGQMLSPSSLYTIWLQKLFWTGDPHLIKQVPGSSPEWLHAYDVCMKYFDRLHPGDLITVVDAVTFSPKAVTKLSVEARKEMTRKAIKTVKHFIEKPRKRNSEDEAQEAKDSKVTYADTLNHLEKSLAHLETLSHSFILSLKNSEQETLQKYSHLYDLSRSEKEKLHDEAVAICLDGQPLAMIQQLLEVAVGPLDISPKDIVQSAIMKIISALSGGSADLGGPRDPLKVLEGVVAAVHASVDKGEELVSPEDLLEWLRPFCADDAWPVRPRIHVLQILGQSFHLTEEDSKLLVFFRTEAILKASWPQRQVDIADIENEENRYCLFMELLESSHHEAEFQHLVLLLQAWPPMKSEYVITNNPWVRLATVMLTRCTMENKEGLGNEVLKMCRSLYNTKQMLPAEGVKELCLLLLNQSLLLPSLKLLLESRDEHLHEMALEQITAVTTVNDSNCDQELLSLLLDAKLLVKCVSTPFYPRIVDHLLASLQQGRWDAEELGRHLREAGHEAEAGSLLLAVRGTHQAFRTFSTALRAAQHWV
UniProt Q9UK23: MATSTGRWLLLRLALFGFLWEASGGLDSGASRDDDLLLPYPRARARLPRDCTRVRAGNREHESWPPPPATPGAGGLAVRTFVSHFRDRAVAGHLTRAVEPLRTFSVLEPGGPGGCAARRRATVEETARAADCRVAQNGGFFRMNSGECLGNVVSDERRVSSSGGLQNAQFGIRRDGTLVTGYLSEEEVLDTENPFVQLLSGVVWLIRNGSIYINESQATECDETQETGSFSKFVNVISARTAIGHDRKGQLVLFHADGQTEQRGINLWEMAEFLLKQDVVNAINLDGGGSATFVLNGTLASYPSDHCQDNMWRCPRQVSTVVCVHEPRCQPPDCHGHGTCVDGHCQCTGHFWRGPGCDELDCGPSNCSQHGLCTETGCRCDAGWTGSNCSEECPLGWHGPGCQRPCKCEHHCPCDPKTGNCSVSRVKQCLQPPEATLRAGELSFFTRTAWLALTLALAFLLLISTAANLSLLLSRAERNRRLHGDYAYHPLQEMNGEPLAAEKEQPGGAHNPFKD
UniProt Q6IA69: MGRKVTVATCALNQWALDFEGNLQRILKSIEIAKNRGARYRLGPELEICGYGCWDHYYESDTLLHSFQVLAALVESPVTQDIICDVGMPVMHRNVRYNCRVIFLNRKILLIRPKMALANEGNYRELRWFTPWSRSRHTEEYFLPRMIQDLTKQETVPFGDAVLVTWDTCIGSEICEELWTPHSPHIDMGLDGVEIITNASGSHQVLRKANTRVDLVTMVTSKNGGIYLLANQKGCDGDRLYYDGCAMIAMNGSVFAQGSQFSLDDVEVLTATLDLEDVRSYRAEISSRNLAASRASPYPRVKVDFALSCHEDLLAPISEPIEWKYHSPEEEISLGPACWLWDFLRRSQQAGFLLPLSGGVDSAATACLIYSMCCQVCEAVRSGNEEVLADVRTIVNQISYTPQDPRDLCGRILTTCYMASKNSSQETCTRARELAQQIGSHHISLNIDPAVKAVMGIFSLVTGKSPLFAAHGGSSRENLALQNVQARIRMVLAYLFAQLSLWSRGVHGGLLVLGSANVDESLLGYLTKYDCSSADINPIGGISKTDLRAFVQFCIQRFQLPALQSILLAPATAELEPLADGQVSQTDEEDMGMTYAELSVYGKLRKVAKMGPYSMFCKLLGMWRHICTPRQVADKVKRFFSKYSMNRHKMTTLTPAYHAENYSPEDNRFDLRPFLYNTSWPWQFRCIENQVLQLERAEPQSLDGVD
UniProt P52179: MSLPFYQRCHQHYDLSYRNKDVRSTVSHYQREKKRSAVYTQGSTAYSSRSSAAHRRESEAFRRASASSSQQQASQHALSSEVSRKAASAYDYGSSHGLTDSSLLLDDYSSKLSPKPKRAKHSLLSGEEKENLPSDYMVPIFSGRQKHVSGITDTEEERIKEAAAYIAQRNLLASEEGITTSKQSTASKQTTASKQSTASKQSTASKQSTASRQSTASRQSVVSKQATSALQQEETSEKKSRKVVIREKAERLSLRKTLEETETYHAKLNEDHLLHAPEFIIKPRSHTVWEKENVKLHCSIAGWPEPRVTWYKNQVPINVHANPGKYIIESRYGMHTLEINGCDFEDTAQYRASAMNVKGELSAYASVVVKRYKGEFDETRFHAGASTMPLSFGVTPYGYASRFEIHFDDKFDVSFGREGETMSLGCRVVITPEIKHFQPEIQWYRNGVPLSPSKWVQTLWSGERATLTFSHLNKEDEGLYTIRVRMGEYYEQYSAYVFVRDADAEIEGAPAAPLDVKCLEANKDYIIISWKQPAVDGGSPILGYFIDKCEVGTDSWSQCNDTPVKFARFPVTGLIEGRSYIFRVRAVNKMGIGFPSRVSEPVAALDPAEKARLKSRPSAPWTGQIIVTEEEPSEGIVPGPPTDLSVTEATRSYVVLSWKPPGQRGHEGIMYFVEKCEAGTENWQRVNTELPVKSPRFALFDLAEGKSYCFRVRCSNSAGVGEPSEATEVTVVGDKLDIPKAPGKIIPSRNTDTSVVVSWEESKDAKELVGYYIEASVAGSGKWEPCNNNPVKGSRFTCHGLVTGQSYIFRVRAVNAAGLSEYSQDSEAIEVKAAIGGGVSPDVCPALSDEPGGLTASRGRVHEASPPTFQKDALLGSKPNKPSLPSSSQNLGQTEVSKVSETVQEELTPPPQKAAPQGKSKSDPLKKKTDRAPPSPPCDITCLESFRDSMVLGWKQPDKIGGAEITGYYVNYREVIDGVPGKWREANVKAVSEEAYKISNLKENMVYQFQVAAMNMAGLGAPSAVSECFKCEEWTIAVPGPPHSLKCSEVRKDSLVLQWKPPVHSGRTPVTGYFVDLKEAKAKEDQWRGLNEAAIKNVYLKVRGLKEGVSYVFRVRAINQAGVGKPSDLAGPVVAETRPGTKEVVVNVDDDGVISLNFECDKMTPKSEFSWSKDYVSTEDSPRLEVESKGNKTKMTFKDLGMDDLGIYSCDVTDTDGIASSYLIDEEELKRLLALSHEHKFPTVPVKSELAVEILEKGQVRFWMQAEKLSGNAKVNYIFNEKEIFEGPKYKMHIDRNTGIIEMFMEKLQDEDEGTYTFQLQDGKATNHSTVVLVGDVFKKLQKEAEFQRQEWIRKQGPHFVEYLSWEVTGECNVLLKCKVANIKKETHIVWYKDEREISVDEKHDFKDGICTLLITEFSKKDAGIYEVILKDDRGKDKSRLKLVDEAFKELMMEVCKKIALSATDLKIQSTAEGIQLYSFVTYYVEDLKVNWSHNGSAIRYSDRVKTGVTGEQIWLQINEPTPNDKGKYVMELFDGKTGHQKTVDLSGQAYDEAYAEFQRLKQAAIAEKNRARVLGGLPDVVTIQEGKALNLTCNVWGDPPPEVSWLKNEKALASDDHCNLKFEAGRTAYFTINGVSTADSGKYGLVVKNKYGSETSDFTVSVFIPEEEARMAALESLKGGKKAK
UniProt Q99836, whole entry, looked up: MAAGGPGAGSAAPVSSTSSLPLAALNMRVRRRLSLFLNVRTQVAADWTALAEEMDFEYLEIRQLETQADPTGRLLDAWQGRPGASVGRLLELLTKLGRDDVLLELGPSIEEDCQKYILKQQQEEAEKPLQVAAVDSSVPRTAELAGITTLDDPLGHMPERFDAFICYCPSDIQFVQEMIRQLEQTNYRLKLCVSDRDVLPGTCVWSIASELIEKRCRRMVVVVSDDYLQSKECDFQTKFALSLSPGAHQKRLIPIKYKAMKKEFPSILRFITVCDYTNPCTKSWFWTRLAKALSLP
UniProt Q96HR8: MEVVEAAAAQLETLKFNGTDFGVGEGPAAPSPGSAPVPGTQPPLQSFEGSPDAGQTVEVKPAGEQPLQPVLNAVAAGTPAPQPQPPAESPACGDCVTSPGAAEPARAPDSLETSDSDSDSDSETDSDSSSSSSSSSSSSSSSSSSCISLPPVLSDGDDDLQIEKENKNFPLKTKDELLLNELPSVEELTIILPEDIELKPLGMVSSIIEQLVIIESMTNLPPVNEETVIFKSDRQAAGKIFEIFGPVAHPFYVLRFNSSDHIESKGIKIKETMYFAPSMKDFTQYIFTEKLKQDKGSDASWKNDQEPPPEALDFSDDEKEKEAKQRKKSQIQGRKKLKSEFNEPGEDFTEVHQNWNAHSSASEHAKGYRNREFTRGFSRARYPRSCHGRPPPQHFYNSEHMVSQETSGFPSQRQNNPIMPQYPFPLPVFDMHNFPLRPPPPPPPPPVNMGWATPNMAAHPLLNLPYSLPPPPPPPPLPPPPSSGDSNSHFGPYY

Tests used:
Assay in all cases: log2 fold change, soluble protein after heating vs DMSO (PISA); higher = thermal stabilisation; K562 lysate, 10 uM; active = over 0.2 and 3.5 SD of the protein, either way, in both replicates (recomputed)
[1] = compound: C1=CC=C(C=C1)[C@H](COC2=CC3=C(C=C2)NC(=O)N3)NC(=O)C4=CC=CN(C4=O)CC5=CC(=C(C=C5)F)F
Outline: (§1)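 To prepare the extract, K562 pellets were dounce-homogenised in PBS pH 7.4 with 1 mM MgCl2, giving crude material at 1 mg/mL protein. This was treated with 10 μM compound for 30 min, then heated in aliquots for 3 min over 48°C-58°C before pooling and addition of NP-40 to 0.5% at 4°C. Centrifugation at 21,000xg for 90 min left soluble protein in the supernatant, which TMTpro 16plex LC-MS/MS quantified with equalised channel sums. Results are log-two fold changes in thermal stability compared with solvent controls, from duplicates.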

[2] = compound: CC1=C(SC2=C1C(=N[C@H](C3=NN=C(N32)C)CC(=O)N)C4=CC=C(C=C4)Cl)C
Outline: as §1

[3] = compound: CC1=C2C(=CC=C1)N=C(N(C2=O)C3=CC=CC=C3C)CN4C=NC5=C(N=CN=C54)N
Outline: as §1

[4] = compound: Cc1sc2c(c1C)C(c1ccc(Cl)cc1)=N[C@@H](CC(=O)OC(C)(C)C)c1nnc(C)n1-2
Outline: as §1

[5] = compound: c1ccc([C@@H]2C[C@H]2NC2CCNCC2)cc1
Outline: as §1

Target	log2 fold change [1]	log2 fold change [2]	log2 fold change [3]	log2 fold change [4]	log2 fold change [5]
NCOA2 (UniProt Q15596)	inactive: 0.083	inactive: 0.145	inactive: 0.044	inactive: 0.001	inactive: -0.016
NAGA (UniProt P17050)	inactive: 0.049	inactive: 0.002	inactive: 0.007	inactive: 0.003	inactive: -0.044
NADK (UniProt O95544)	inactive: 0.074	inactive: -0.009	inactive: 0.061	inactive: -0.06	inactive: -0.025
NCSTN (UniProt Q92542)	inactive: -0.059	inactive: 0.037	inactive: 0.028	inactive: -0.057	inactive: -0.122
NBAS (UniProt A2RRP1)	inactive: 0.052	inactive: 0.035	inactive: 0.239	inactive: 0.014	inactive: 0.022
NAGPA (UniProt Q9UK23)	inactive: -0.055	inactive: 0.014	inactive: -0.017	inactive: -0.204	inactive: 0.049
NADSYN1 (UniProt Q6IA69)	inactive: 0.046	inactive: -0.008	inactive: -0.006	inactive: -0.01	inactive: -0.009
MYO6 isoform 6 (UniProt Q9UM54)	inactive: 0.003	inactive: 0.023	inactive: 0.06	inactive: 0.176	inactive: 0.007
NBR1 (UniProt Q14596)	inactive: -0.007	inactive: 0.118	inactive: -0.049	inactive: -0.02	inactive: 0.212
MYOM1 (UniProt P52179)	inactive: -0.012	inactive: 0.088	inactive: -0.111	inactive: -0.135	inactive: -0.079
NAA11 (UniProt Q9BSU3)	inactive: 0.005	inactive: 0.214	inactive: -0.002	inactive: 0.047	inactive: -0.016
NAPA (UniProt P54920)	inactive: 0.041	inactive: -0.031	inactive: -0.009	inactive: 0.003	inactive: -0.102
NCBP2 (UniProt P52298)	inactive: -0.013	inactive: 0.024	inactive: 0.049	inactive: -0.076	inactive: 0.001
NCAPH (UniProt Q15003)	inactive: -0.025	inactive: 0.015	inactive: 0.021	inactive: -0.023	inactive: 0.024
NCOR2 (UniProt C9J0Q5)	inactive: 0.045	inactive: 0.033	inactive: -0.031	inactive: 0.048	inactive: -0.006
NAE1 (UniProt Q13564)	inactive: 0.036	inactive: 0.004	inactive: 0.008	inactive: 0.009	inactive: 0.023
NCBP3 (UniProt Q53F19)	inactive: -0.088	inactive: 0.013	inactive: 0.052	inactive: 0.047	inactive: -0.008
NAA38 isoform 2 (UniProt Q9BRA0)	inactive: -0.002	inactive: 0.02	inactive: 0.063	inactive: -0.005	active: -0.344
MYD88 isoform 6 (UniProt Q99836)	inactive: 0.019	inactive: -0.021	inactive: 0.026	inactive: -0.008	inactive: 0.013
NAF1 (UniProt Q96HR8)	inactive: -0.057	inactive: 0.001	inactive: -0.007	inactive: 0.093	inactive: -0.001
MYO1D (UniProt O94832)	inactive: -0.006	inactive: 0.002	inactive: 0.015	inactive: -0.006	inactive: 0.02
MYL4 (UniProt P12829)	inactive: 0.01	inactive: -0.104	inactive: -0.045	inactive: -0.015	inactive: -0.026
NAA25 (UniProt Q14CX7)	inactive: -0.021	inactive: 0.008	inactive: -0.021	inactive: 0.018	inactive: 0.047
NAA15, A0A0B4J1W3	inactive: -0.004	inactive: -0.005	inactive: -0.063	inactive: 0.009	inactive: 0.01

Individual results from the list:
In log2 fold change [4], MYD88 isoform 6 (UniProt Q99836) shows inactive: -0.008
In log2 fold change [5], MYO1D (UniProt O94832) shows inactive: 0.02
